Experimental data from PubChem BioAssay AID330 (DTP/NCI, 2004).
The list shows only some results of the screen, not a fair sample: it gathers tests that were run many times, whatever their T/C, doses with no T/C, and many T/C values between a quarter and a half above the control. Further doses and runs are listed elsewhere. T/C: endpoint of the treated group in % of that of the vehicle group. Some doses have a count of surviving animals in place of a T/C: the source holds a T/C of zero for them, seemingly a mark for toxic or unscored doses. Some survivor counts are full or nearly so, which does not show that the dose was tolerated: survival well below the control is almost never listed, so the zero probably covers shortened survival too. Counts of survivors are from the toxicity check (mostly the fifth day) where no day follows; animals may have died later. Schedule codes are those of the source, read here as Q, the interval in days (D) or hours (H), X, the number of doses. Where survival is the endpoint, the PubChem record calls one and a half times the control and up active, and a quarter to a half above the control has no call in these data; cut-offs in other NCI protocols can differ. Some entries were tested several times; the values are given in rising order.

System: P388 leukemia ip, CD2F1 mice, survival T/C
Assay: NCI In Vivo Anticancer Drug Screen. Data for tumor model P388 Leukemia (intraperitoneal) in CD2F1 (CDF1) mice
Settings: T/C endpoint: median survival time, higher T/C = longer survival
[1] = dose: 50.0 mg/kg/injection, schedule: Q01DX009 (ip), vehicle: saline
[2] = dose: 100.0 mg/kg/injection, schedule: Q01DX009 (ip), vehicle: saline
[3] = dose: 200.0 mg/kg/injection, schedule: Q01DX009 (ip), vehicle: saline
[4] = dose: 400.0 mg/kg/injection, schedule: Q01DX009 (ip), vehicle: saline
[5] = dose: 240.0 mg/kg/injection, schedule: Q01DX005 (ip), vehicle: Klucel (hydroxypropylcellulose) (HPC)
[6] = dose: 100.0 mg/kg/injection, schedule: Q04DX002 (ip), vehicle: saline with Tween-80
[7] = dose: 400.0 mg/kg/injection, schedule: Q04DX002 (ip), vehicle: saline with Tween-80
[8] = dose: 200.0 mg/kg/injection, schedule: Q01DX009 (ip), vehicle: Klucel (hydroxypropylcellulose) (HPC)
[9] = dose: 200.0 mg/kg/injection, schedule: Q04DX003 (ip), vehicle: Klucel (hydroxypropylcellulose) (HPC)

What does the source list for `CCOC(=O)c1cnn(C)c1N`?
T/C [1]: 131 % of control; T/C [2]: 138 % of control; survivor count [3]: 4 of 6; survivor count [4]: 3 of 6

With `[Cl][Sb]([Cl])([Cl])([c]1ccccc1)[c]1ccccc1` as the compound, how does the survivor count [1] read?
The survivor count was 6 of 6.

And the survivor count [2]?
Its survivor count is 6 of 6.

And the survivor count [3]?
Its survivor count is 4 of 6.

Which survivor count [1] does the source give for `c1cc[n+](CCC2OCCO2)cc1` here?
Its survivor count is 6 of 6.

And the survivor count [3]?
The survivor count was 0 of 6.

How did the survivor count (dose: 50.0 mg/kg/injection, schedule: Q01DX009 (ip), vehicle: suspension in saline) turn out when `CC(C)(COS(C)(=O)=O)COS(C)(=O)=O` was run?
Its survivor count is 5 of 6.

And the T/C [4]?
The T/C was 131 % of control.

`N#CC1=C(Nc2ccccc2)SC(c2cccs2)NC1=O` (centres undefined) was tested. Which T/C [5] did it give?
Its T/C is 125 % of control.

For `C=C1C(=O)C2=CC1CCC(=O)C1(C)CCC(OC(C)=O)C(C)(C)C1CC2O` (centres undefined), which survivor count (dose: 60.0 mg/kg/injection, schedule: Q01DX009 (ip), vehicle: Klucel (hydroxypropylcellulose) (HPC)) is on record?
Its survivor count is 0 of 6.

And the survivor count (dose: 120.0 mg/kg/injection, schedule: Q01DX009 (ip), vehicle: Klucel (hydroxypropylcellulose) (HPC))?
The survivor count was 0 of 6.

`COCC(=O)[C@]1(O)Cc2c(O)c3c(c(O)c2[C@@H](OC2CC(N)C(O)C(C)O2)C1)C(=O)c1c(OC)cccc1C3=O` (some centres undefined) was tested. Which T/C (dose: 50.0 mg/kg/injection, schedule: Q04DX003 (ip), vehicle: water) did it give?
The T/C was 127 % of control.

With `COC(=O)c1nc(N)nc(C(=O)OC)c1C(=O)c1ccco1` as the compound, how does the survivor count [5] read?
The survivor count was 0 of 6.

Which T/C (dose: 6.25 mg/kg/injection, schedule: Q04DX003 (ip), vehicle: water) does the source give for `C1=C[N-]c2c3c(ccc2=C1)=CC=C[N-]3.N#[O+].O.O=N[O-].O=N[O-].[Ru+2]` here?
The T/C was 131 % of control.

What about the T/C (dose: 12.5 mg/kg/injection, schedule: Q04DX003 (ip), vehicle: distilled water + Tween-80) of the same compound?
Its T/C is 134 % of control.

What about the survivor count (dose: 25.0 mg/kg/injection, schedule: Q04DX003 (ip), vehicle: distilled water + Tween-80) of the same compound?
The survivor count was 3 of 6.

And the survivor count (dose: 25.0 mg/kg/injection, schedule: Q04DX003 (ip), vehicle: water)?
The survivor count was 5 of 6.

And the survivor count (dose: 50.0 mg/kg/injection, schedule: Q04DX003 (ip), vehicle: distilled water + Tween-80)?
Its survivor count is 0 of 6.

What about the survivor count (dose: 100.0 mg/kg/injection, schedule: Q04DX003 (ip), vehicle: distilled water + Tween-80) of the same compound?
The survivor count was 0 of 6.

What about the survivor count (dose: 200.0 mg/kg/injection, schedule: Q04DX003 (ip), vehicle: distilled water + Tween-80) of the same compound?
Its survivor count is 0 of 6.

Which results are given for `Cc1cc(C)c2ccc(NN=O)nc2n1`?
T/C (dose: 3.12 mg/kg/injection, schedule: Q01DX009 (ip), vehicle: water): 128 % of control; T/C (dose: 6.25 mg/kg/injection, schedule: Q01DX009 (ip), vehicle: water): 128 and 136 % of control; T/C (dose: 12.5 mg/kg/injection, schedule: Q01DX009 (ip), vehicle: water): 136 % of control; survivor count (dose: 50.0 mg/kg/injection, schedule: Q01DX009 (ip), vehicle: water): 6 of 6

What does the source list for `C/C=C(\NN=NC)c1ccccc1`?
T/C [6]: 140 % of control; survivor count [7]: 1 of 5

For `COC(=O)/C1=C/N(C=O)CCCC2OC12C(=O)OC` (centres undefined), which survivor count (dose: 400.0 mg/kg/injection, schedule: Q01DX001 (ip), vehicle: Klucel (hydroxypropylcellulose) (HPC)) is on record?
The survivor count was 3 of 6.

`O=C(O)c1cccc(-n2ncc(Cl)c(Cl)c2=O)c1` was tested. Which survivor count (dose: 100.0 mg/kg/injection, schedule: Q01DX009 (ip), vehicle: saline with Tween-80) did it give?
The survivor count was 4 of 6.

`CSc1cc(C)[o+]c(C)c1` was tested. Which survivor count (dose: 25.0 mg/kg/injection, schedule: Q01DX009 (ip), vehicle: Klucel (hydroxypropylcellulose) (HPC)) did it give?
Its survivor count is 6 of 6.

And the T/C (dose: 50.0 mg/kg/injection, schedule: Q01DX009 (ip), vehicle: Klucel (hydroxypropylcellulose) (HPC))?
Its T/C is 125 % of control.

And the T/C (dose: 100.0 mg/kg/injection, schedule: Q01DX009 (ip), vehicle: Klucel (hydroxypropylcellulose) (HPC))?
Its T/C is 126 % of control.

What about the T/C [8] of the same compound?
The T/C was 136 % of control.

And the survivor count [8]?
The survivor count was 6 of 6.

What about the survivor count (dose: 400.0 mg/kg/injection, schedule: Q01DX009 (ip), vehicle: Klucel (hydroxypropylcellulose) (HPC)) of the same compound?
Its survivor count is 3 of 6.

For `CCOC(=O)c1c[n+](C2OC(COC(=O)c3ccccc3)C(OC(=O)c3ccccc3)C2OC(=O)c2ccccc2)ccc1N` (centres undefined), which survivor count (dose: 100.0 mg/kg/injection, schedule: Q01DX005 (ip), vehicle: saline with Tween-80) is on record?
The survivor count was 1 of 6.

What about the survivor count (dose: 200.0 mg/kg/injection, schedule: Q01DX005 (ip), vehicle: saline with Tween-80) of the same compound?
Its survivor count is 3 of 6.

For `[CH3][Sn]([CH3])([Cl])[c]1cc[c]([Sn]([CH3])([CH3])[Cl])cc1`, which T/C (dose: 0.19 mg/kg/injection, schedule: Q01DX005 (ip), vehicle: saline) is on record?
The T/C was 131 % of control.

What about the T/C (dose: 0.19 mg/kg/injection, schedule: Q01DX005 (ip), vehicle: suspension in saline) of the same compound?
The T/C was 126 % of control.

What about the T/C (dose: 0.39 mg/kg/injection, schedule: Q01DX005 (ip), vehicle: saline) of the same compound?
The T/C was 134 and 140 % of control.

And the T/C (dose: 0.39 mg/kg/injection, schedule: Q01DX005 (ip), vehicle: suspension in saline)?
The T/C was 127 % of control.

What about the T/C (dose: 0.78 mg/kg/injection, schedule: Q01DX005 (ip), vehicle: suspension in saline, evaluated on day 20) of the same compound?
Its T/C is 139 % of control.

What about the T/C (dose: 0.78 mg/kg/injection, schedule: Q01DX005 (ip), vehicle: suspension in saline, evaluated on day 30) of the same compound?
The T/C was 131 % of control.

And the T/C (dose: 0.79 mg/kg/injection, schedule: Q01DX005 (ip), vehicle: saline)?
Its T/C is 141 % of control.

And the T/C (dose: 1.56 mg/kg/injection, schedule: Q01DX005 (ip), vehicle: saline)?
The T/C was 143 and 144 % of control.

What about the T/C (dose: 1.56 mg/kg/injection, schedule: Q01DX005 (ip), vehicle: suspension in saline, evaluated on day 20) of the same compound?
The T/C was 139 % of control.

What about the T/C (dose: 1.56 mg/kg/injection, schedule: Q01DX005 (ip), vehicle: suspension in saline, evaluated on day 30) of the same compound?
Its T/C is 138 % of control.

And the survivor count (dose: 3.12 mg/kg/injection, schedule: Q01DX005 (ip), vehicle: saline)?
Its survivor count is 1 of 6.

What about the survivor count (dose: 3.12 mg/kg/injection, schedule: Q01DX005 (ip), vehicle: suspension in saline) of the same compound?
The survivor count was 0 of 6.

And the survivor count (dose: 6.25 mg/kg/injection, schedule: Q01DX005 (ip), vehicle: saline)?
Its survivor count is 0 of 6.

And the survivor count (dose: 12.5 mg/kg/injection, schedule: Q01DX005 (ip), vehicle: saline)?
Its survivor count is 0 of 6.

And the survivor count (dose: 50.0 mg/kg/injection, schedule: Q01DX005 (ip), vehicle: saline)?
The survivor count was 0 of 6.

And the survivor count (dose: 100.0 mg/kg/injection, schedule: Q01DX005 (ip), vehicle: saline)?
The survivor count was 0 of 6.

What about the survivor count (dose: 200.0 mg/kg/injection, schedule: Q01DX005 (ip), vehicle: saline) of the same compound?
Its survivor count is 0 of 6.

Which T/C (dose: 200.0 mg/kg/injection, schedule: Q04DX002 (ip), vehicle: other) does the source give for `CC(C)(C)OC1CCC2=CC(=O)CCC21C` (centres undefined) here?
Its T/C is 127 % of control.

What about the T/C (dose: 400.0 mg/kg/injection, schedule: Q04DX002 (ip), vehicle: other) of the same compound?
Its T/C is 133 % of control.

`NC(=O)/N=[N+](\[O-])c1ccccc1` was tested. Which survivor count [9] did it give?
The survivor count was 1 of 6.

What does the source list for `COc1cc(/C=C/C2=C(C)C(=O)CC(c3cc(OC)c(OC)c(OC)c3)C2C)cc(OC)c1OC` (centres undefined)?
survivor count (dose: 100.0 mg/kg/injection, schedule: Q04DX003 (ip), vehicle: Klucel (hydroxypropylcellulose) (HPC)): 6 of 6; survivor count [9]: 6 of 6; survivor count (dose: 400.0 mg/kg/injection, schedule: Q04DX003 (ip), vehicle: Klucel (hydroxypropylcellulose) (HPC)): 6 of 6

What does the source list for `CCCCCCCOc1cccc(OCCCC[N+]2(CC)CCCCC2)c1`?
survivor count [1]: 0 of 6; survivor count [2]: 0 of 6; survivor count [3]: 0 of 6

How did the T/C [6] turn out when `CS(=O)(=O)Oc1c(Cl)cc(C(=O)c2ccc(Cl)cc2Cl)cc1Cl` was run?
Its T/C is 139 % of control.

What about the T/C (dose: 200.0 mg/kg/injection, schedule: Q04DX002 (ip), vehicle: saline with Tween-80) of the same compound?
The T/C was 135 % of control.

And the survivor count [7]?
Its survivor count is 4 of 6.

Which survivor count (dose: 240.0 mg/kg/injection, schedule: Q01DX005 (ip), vehicle: saline) does the source give for `CCN(CC)CCNC(c1ccc(OC)cc1)C(Cl)(Cl)Cl` (centres undefined) here?
Its survivor count is 3 of 6.
